The results in this text go back to article PMC6586287, “Blocking transmembrane219 protein signaling inhibits autophagy and restores normal cell death” (PLoS ONE, 2019).

These are yes or no findings as the source states them, for the method shown. Binding seen in cells or lysates may run through a third protein. For some assays here: Binding can be weak; no strength is given.

Test [1] has as its target Transmembrane 219 (TM219) protein, endogenous (human (endogenous in THP1 and MCF7)) (UniProt Q86XT9). The experiment in a line: co-IP; MCF7 cells not treated with IGFBP3; anti-TM219 antibody crosslinked to beads in a column; blot with anti-CaMKII.
For test [2] the target is unchanged. The experiment in a line: co-IP; MCF7 cells treated with 1 μM IGFBP3; anti-TM219 antibody crosslinked to beads in a column; blots with anti-CaMKII and anti-calmodulin; control normal mouse antibodies.

As for “Calcium/Calmodulin dependent protein kinase II (human (endogenous in MCF7)) (enzyme)”, the binding entry in test [1] was “no binding (only cells not treated with IGFBP3)”; in test [2], “binds”.
